Test [1] concerns the target hY4R‐eYFP (human) (UniProt P50391). As to the kind of experiment: condition: only cells stimulated with conjugate 6 or 8; FRET or BRET; NanoBRET in transiently transfected HEK293 cells expressing hY1/2/4R-eYFP and Nluc-arr3; cells stimulated 15 min with the multiply loaded conjugates 6, 7 or 8; BRET buffer (HBSS, 25 mM HEPES, pH 7.3), 37 °C.
The target is the same in test [2]. Kind of test: FRET or BRET; NanoBRET in transiently transfected HEK293 cells expressing hY1/2/4R-eYFP and Nluc-arr3; read 15 min after stimulation with increasing peptide concentrations (native ligands NPY or hPP, [F7,P34]-NPY, conjugates); BRET buffer (HBSS, 25 mM HEPES, pH 7.3), 37 °C.

By UniProt entry, the sequences of proteins in these tests, tags left out.
UniProt P50391: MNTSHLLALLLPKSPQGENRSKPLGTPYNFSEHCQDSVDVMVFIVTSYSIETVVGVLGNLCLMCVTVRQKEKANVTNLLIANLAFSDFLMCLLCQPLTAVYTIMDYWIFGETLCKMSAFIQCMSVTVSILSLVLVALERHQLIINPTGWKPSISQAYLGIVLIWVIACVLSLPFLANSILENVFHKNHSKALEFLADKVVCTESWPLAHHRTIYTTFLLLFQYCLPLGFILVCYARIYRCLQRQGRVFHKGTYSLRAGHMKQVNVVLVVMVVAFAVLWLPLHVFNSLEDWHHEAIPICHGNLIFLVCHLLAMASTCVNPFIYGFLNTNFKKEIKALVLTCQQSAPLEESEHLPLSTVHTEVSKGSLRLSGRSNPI
UniProt P32121: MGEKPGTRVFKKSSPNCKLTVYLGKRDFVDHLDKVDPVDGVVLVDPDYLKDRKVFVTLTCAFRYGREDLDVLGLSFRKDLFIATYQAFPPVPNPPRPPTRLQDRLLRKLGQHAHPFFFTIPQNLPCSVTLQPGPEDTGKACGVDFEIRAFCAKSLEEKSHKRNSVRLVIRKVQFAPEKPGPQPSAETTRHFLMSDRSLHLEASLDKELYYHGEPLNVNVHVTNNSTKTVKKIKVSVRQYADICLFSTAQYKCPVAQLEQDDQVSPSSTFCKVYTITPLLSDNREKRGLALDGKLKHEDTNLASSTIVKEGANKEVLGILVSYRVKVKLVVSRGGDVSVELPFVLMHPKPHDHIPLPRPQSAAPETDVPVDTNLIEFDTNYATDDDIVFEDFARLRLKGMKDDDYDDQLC

Binding data for 1 substance are collected here from publication PMC12711160 (Chemmedchem, 2025).

Results are given in words; binding and its absence hold for the method and conditions named. In cells and extracts the contact can be indirect. Some binding calls cover weakened binding; strength is not graded here.

Take “Nluc‐arr3 (arrestin‐3) (from UniProt P32121 1-409)”: the results for the binding entry with hY4R‐eYFP (human) [1] and in the test with hY4R‐eYFP (human) [2] were “no binding” and “binds”, respectively.
